Data as given in the supplement of paper PMC12823440, “Inhibitors supercharge kinase turnover through native proteolytic circuits” (Nature, 2025).
This is one part of the list. The calls rarely recur for the same compound in another form.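 In K562 cells expressing nanoluciferase-fused kinases, luminescence was recorded at 4 h intervals between 2 and 18 h, normalized as percent of control with DMSO at 100% and a positive control at 0%. A significant (2 sigma) signal drop marks a time point as decreased. The authors' rule for a hit is not shown and takes in more than the number of time points.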

Chains of the proteins cited; added tags and fusions are not shown. Lines headed by an entry give the natural chain unless they say otherwise; changes in a name come on top.
UniProt Q9UQM7, whole entry: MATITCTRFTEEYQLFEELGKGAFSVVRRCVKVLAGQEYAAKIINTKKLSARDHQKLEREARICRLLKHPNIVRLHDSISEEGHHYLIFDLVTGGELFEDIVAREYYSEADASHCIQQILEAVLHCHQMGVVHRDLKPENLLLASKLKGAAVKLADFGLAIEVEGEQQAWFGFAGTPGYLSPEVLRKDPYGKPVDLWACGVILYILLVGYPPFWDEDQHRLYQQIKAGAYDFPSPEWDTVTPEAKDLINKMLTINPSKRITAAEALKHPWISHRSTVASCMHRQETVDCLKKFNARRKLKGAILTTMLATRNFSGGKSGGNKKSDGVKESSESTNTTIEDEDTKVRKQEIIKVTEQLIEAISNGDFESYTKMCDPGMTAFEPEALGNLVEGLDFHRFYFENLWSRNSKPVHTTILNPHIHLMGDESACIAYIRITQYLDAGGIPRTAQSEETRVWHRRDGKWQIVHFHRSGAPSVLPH
UniProt Q13555: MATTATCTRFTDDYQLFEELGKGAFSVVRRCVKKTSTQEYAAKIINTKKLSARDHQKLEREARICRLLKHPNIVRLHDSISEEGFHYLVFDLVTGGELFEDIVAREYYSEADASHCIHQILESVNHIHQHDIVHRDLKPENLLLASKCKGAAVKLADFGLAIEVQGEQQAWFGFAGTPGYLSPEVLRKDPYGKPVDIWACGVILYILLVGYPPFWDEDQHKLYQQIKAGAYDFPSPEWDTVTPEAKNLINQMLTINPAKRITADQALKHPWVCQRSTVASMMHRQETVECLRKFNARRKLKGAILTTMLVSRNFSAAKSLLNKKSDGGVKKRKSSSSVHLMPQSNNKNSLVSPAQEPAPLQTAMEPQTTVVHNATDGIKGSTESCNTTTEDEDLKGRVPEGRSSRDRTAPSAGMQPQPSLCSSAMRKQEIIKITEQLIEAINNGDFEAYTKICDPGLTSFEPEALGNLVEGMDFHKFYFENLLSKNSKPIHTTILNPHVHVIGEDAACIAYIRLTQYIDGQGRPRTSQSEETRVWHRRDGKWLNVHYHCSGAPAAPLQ
UniProt Q15131: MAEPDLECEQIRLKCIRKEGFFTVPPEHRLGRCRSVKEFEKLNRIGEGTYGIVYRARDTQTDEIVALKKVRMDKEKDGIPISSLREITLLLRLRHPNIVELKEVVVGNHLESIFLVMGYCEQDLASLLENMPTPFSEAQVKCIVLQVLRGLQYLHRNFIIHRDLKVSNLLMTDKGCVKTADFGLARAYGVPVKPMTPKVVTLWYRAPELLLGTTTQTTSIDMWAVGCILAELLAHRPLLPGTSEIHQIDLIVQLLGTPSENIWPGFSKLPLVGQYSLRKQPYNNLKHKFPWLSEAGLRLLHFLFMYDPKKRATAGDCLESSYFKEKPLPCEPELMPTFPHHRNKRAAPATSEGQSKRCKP
UniProt Q00526: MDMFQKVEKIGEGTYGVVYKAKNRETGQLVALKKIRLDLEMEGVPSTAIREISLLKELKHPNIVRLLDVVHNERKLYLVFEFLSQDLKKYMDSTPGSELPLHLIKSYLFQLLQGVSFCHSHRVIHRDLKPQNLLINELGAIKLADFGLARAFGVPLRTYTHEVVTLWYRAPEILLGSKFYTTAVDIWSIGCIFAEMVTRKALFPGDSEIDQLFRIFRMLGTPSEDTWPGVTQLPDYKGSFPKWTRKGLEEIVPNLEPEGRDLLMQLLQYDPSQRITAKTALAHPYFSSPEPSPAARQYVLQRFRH
UniProt Q00535, whole entry, looked up: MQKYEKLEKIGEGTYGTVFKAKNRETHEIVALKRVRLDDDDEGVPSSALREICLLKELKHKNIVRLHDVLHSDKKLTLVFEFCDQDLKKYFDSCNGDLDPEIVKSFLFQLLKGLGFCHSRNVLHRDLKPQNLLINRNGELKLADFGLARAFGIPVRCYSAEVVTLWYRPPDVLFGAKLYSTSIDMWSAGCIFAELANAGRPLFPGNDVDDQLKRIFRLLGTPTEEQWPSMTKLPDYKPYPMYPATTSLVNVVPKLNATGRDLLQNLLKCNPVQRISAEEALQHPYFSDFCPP
UniProt Q00534, whole entry: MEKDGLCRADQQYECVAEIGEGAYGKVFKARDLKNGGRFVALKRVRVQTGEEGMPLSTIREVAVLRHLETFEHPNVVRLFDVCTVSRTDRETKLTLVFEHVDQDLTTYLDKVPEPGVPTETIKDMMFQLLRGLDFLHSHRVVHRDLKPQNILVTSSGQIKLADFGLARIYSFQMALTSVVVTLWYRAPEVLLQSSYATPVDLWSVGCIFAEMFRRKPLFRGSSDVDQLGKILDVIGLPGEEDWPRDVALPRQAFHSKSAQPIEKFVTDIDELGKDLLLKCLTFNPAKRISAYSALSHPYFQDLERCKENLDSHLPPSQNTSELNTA
UniProt O96017, whole entry: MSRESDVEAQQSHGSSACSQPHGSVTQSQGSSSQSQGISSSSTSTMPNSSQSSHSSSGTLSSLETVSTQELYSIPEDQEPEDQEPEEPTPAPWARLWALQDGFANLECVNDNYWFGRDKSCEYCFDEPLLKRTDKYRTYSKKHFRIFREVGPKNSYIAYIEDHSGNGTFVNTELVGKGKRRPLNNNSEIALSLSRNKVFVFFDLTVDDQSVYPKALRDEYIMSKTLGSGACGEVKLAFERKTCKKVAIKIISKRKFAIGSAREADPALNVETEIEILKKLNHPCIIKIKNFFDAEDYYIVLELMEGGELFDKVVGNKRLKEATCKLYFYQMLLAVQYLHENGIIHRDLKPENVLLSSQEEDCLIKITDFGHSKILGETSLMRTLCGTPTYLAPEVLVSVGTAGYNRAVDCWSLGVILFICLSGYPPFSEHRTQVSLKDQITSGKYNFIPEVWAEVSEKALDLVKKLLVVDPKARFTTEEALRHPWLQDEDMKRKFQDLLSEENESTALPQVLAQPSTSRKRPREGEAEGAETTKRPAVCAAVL
UniProt P07333, whole entry: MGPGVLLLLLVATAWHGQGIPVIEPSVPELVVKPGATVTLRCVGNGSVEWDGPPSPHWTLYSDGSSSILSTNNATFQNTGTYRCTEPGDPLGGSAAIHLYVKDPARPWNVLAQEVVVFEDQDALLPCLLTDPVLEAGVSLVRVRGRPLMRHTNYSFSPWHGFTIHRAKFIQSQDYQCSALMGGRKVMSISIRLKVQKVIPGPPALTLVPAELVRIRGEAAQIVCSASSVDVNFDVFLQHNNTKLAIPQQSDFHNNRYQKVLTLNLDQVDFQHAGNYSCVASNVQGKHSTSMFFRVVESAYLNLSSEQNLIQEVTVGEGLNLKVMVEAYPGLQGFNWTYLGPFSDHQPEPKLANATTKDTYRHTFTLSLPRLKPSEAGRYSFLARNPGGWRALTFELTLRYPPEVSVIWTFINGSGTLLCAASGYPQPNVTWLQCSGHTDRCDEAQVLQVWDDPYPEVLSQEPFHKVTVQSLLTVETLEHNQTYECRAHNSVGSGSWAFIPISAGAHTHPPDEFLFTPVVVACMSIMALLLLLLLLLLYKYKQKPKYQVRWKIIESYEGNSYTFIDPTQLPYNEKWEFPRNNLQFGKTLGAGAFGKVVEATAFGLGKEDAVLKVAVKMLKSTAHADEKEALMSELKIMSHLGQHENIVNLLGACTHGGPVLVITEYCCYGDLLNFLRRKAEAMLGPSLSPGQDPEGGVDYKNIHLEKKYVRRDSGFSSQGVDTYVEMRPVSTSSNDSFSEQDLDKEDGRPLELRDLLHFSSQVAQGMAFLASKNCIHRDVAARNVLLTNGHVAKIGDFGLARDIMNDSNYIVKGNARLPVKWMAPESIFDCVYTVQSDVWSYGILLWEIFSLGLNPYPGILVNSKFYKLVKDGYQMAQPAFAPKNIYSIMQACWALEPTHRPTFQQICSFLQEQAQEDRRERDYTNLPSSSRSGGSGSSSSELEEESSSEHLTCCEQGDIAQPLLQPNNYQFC
UniProt P41240: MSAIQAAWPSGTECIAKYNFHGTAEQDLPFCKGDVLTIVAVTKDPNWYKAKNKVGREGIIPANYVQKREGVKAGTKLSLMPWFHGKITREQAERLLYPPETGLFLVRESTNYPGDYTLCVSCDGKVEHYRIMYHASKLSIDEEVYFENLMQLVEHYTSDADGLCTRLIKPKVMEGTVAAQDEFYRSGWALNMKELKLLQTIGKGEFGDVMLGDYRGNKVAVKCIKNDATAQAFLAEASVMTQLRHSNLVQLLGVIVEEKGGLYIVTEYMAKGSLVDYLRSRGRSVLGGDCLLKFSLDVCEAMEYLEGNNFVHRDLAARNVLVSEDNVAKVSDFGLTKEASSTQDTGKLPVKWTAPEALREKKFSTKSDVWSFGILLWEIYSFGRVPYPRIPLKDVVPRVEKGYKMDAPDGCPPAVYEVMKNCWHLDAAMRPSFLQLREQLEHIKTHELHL
UniProt P48729: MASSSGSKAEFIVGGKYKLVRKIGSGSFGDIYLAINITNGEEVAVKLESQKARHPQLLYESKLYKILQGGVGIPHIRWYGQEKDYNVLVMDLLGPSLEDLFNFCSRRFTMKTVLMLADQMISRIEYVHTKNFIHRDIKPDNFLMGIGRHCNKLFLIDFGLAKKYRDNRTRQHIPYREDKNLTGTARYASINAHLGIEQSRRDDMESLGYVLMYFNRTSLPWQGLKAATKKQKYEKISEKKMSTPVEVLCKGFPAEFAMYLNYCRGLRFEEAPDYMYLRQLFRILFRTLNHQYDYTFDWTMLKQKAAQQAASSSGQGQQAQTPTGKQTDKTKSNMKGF
UniProt P48730: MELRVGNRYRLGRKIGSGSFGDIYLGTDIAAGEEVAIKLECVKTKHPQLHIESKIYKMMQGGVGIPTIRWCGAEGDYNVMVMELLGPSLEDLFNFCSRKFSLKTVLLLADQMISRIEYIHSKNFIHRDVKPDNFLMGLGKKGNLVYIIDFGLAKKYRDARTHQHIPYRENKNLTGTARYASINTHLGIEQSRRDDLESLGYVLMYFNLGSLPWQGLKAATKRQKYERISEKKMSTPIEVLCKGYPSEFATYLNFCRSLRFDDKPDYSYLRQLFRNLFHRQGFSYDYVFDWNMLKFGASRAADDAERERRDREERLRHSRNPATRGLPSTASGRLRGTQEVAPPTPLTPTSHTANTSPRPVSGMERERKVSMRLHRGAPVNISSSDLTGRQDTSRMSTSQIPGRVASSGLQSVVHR
UniProt Q08345: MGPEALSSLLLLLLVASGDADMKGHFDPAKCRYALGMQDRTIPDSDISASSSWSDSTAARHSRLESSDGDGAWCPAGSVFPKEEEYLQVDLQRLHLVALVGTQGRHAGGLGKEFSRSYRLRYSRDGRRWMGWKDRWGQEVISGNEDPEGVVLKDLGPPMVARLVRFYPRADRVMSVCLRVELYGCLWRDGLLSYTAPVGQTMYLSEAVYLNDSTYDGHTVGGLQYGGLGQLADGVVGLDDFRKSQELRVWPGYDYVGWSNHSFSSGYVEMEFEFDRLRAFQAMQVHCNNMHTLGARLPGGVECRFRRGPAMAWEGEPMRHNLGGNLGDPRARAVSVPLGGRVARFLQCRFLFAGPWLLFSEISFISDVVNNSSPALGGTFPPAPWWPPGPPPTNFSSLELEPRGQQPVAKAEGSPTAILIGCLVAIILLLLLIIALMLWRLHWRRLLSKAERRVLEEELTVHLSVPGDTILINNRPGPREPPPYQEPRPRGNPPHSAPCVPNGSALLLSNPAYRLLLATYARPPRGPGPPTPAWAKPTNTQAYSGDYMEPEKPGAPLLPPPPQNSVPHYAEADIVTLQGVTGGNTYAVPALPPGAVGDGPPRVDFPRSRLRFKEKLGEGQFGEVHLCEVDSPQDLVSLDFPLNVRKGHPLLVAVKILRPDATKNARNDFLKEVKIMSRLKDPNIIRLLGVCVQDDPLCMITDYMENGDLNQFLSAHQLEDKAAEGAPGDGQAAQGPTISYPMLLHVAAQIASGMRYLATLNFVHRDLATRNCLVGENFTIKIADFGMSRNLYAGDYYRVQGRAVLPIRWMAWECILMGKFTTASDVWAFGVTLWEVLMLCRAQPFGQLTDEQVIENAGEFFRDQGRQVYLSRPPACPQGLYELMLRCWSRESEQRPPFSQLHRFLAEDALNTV
UniProt Q9Y463, whole entry, looked up: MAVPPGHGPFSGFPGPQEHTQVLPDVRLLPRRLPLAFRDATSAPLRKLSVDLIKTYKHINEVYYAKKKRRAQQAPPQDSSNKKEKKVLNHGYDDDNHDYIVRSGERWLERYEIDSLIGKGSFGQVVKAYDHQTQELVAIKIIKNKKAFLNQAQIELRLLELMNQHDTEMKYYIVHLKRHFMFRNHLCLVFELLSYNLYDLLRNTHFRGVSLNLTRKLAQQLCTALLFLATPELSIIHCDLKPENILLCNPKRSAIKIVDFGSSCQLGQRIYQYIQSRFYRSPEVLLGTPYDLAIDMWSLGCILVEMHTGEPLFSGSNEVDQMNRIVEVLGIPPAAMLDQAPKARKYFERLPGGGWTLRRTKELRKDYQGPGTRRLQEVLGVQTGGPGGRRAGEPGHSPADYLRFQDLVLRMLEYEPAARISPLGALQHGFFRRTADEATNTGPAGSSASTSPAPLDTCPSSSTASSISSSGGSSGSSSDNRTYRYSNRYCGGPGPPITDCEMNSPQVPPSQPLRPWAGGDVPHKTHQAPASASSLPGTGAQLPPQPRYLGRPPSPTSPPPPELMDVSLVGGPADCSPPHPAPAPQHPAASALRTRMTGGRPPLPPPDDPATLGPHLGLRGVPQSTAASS

Tests used:
Experiment in all cases: number of time points (of 5) at which kinase-Nluc abundance scored as decreased, DMSO-normalised (count); higher = more persistent destabilization
Conditions in all cases: K562; 2-18 h
[1] = target: CAMK2A (UniProt Q9UQM7)
[2] = target: CAMK2G (UniProt Q13555)
[3] = target: CDK10 (UniProt Q15131)
[4] = target: CDK2 (UniProt P24941)
[5] = target: CDK3 (UniProt Q00526)
[6] = target: CDK5 (UniProt Q00535)
[7] = target: CDK6 (UniProt Q00534)
[8] = target: CHEK2 (UniProt O96017)
[9] = target: CSF1R (UniProt P07333)
[10] = target: CSK (UniProt P41240)
[11] = target: CSNK1A1 (UniProt P48729)
[12] = target: CSNK1D (UniProt P48730)
[13] = target: DDR1 (UniProt Q08345)
[14] = target: DYRK1B (UniProt Q9Y463)
[15] = target: DYRK2 (UniProt Q92630)
[16] = target: EGFR (UniProt P00533)
[17] = target: EGFR_G719S (UniProt P00533)
[18] = target: EGFR_G719S_T790M (UniProt P00533)
[19] = target: EGFR_L718V (UniProt P00533)
[20] = target: EGFR_L858R (UniProt P00533)

Measured: number of time points

CN1CCN(c2ccc(Nc3cc(-c4cccc(-n5ccc6cc(C7CC7)cc(F)c6c5=O)c4CO)cn(C)c3=O)nc2)CC1 (2.5 µM)
2: [7]
0: all other assays above

COCCOc1cc2nccc(Nc3n[nH]c(C)c3C)c2cc1S(=O)(=O)C(C)(C)C [RIP2 kinase inhibitor 2] (2.5 µM)
0: all assays above

C=CC(=O)N[C@H]1COC[C@H]1Nc1ncc2cc(-c3c(Cl)c(OC)cc(OC)c3Cl)c(=O)n(C)c2n1 (10 µM)
0: all assays above

Cc1cc(C(=O)Nc2cccc(C(=O)Nc3cccc(C(F)(F)F)c3)c2)on1 (10 µM)
0: all assays above

Cc1ccc(S(=O)(=O)Nc2nc3ccccc3nc2Nc2ccc3nsnc3c2)cc1 [Pilaralisib analogue] (10 µM)
5: [3] | [15] | [20]
0: all other assays above

CC(C)=CC/C=C(\C)[C@H]1CC[C@]2(C)[C@@H]1[C@H](O)C[C@@H]1[C@@]3(C)CC[C@H](O[C@@H]4O[C@H](CO)[C@@H](O)[C@H](O)[C@H]4O[C@@H]4O[C@H](CO)[C@@H](O)[C@H](O)[C@H]4O)C(C)(C)[C@@H]3CC[C@]12C [Ginsenoside Rg5] (10 µM)
0: all assays above

COc1cc(C(=O)NC2CCN(C)CC2)ccc1Nc1ncc2c(n1)N(C1CCCC1)CC(F)(F)C(=O)N2C (10 µM)
3: [17]
1: [16] | [18]
0: all other assays above

Cc1cc(F)c(C(=O)Nc2cccc(-c3nncn3C(C)C)n2)cc1-n1cnc(C2CC2)c1 [Selonsertib] (10 µM)
0: all assays above

CC(C)(C)S(=O)(=O)c1cc2c(Nc3ccc4scnc4c3)ncnc2cc1OCCO (2.5 µM)
0: all assays above

COC(=O)c1ccc2c(C(=Nc3ccc(N(C)C(=O)CN4CCN(C)CC4)cc3)c3ccccc3)c(O)[nH]c2c1 [Nintedanib] (2.5 µM)
1: [13]
0: all other assays above

O=C(O)CCNC(=O)c1ccc(/N=N/c2ccc(O)c(C(=O)O)c2)cc1 [Balsalazide] (10 µM)
0: all assays above

CCC(=O)N1CCN(c2ccc(-n3c(=O)ccc4cnc5ccc(-c6cnc7ccccc7c6)cc5c43)cc2C(F)(F)F)CC1 [Torin 1] (2 µM)
3: [15]
1: [13]
0: all other assays above

At a glance, 2 of the compounds above.
O=C(O)CCNC(=O)c1ccc(/N=N/c2ccc(O)c(C(=O)O)c2)cc1 [Balsalazide] (10 µM)
0: all assays above

CCC(=O)N1CCN(c2ccc(-n3c(=O)ccc4cnc5ccc(-c6cnc7ccccc7c6)cc5c43)cc2C(F)(F)F)CC1 [Torin 1] (2 µM)
3: [15]
1: [13]
0: all other assays above

More structures follow:

O=c1oc2c(C3OCCCO3)c(O)ccc2c2c1CNCC2 (10 µM)
0: all assays above

COc1ccc(NC(=O)N2CCN(c3nc(N)nc4c3cnn4C)[C@@H](C)C2)c(C)c1 (10 µM)
0: all assays above

Cc1ccc(NC(=O)c2cccc(N(C)C)c2)cc1NC(=O)c1ccc(O)cc1 (10 µM)
0: all assays above

O=C(/C=C/c1ccc(O)c(O)c1)c1ccc(O)cc1O [Butein] (10 µM)
2: [2] | [8] | [9] | [13] | [17] | [18]
5: [15]
1: [11] | [20]
0: all other assays above

CCCCNc1ncc(-c2ccc(CN3CCOCC3)cn2)c(NC2CCC(O)CC2)n1 (stereo not given) (10 µM)
0: all assays above

O=C(Nc1cc(C(F)(F)F)ccc1N1CCN(Cc2ccccn2)CC1)c1ccc(-c2ccncc2)o1 (10 µM)
0: all assays above

CN(C)Cc1ccc(-c2cnn3c(-c4cccc(NC(=O)c5cccc(C(F)(F)F)c5)c4)ccnc23)cc1 (2.5 µM)
0: all assays above

CCOc1cc2ncc(-c3cc(N)nc(F)c3)n2cc1S(=O)(=O)C(C)(C)C (10 µM)
0: all assays above

Cc1ccc2c(Nc3cccc(OC(F)(F)F)c3)nccc2c1Nc1ncccc1-c1ncnc2[nH]cnc12 (10 µM)
0: all assays above

Cn1c(=O)n(-c2ccc(C(C)(C)C#N)cc2)c2c3cc(-c4cnc5ccccc5c4)ccc3ncc21 [Dactolisib (Tosylate)] (10 µM)
1: [14] | [16]
4: [8] | [9] | [15]
2: [3] | [17]
3: [2] | [13]
0: all other assays above

COc1cc(OC)cc(N(CCNC(C)C)c2ccc3ncc(-c4cnn(C)c4)nc3c2)c1 [Erdafitinib] (2.5 µM)
1: [15]
0: all other assays above
